The values below come from PubChem BioAssay AID2685 (National Center for Advancing Translational Sciences (NCATS), 2010).

The other results are listed elsewhere or left out. These are further read-outs of the screen, such as a control signal, another cell line or another target. No call is given for them. Compounds called inactive in the main read-out are mostly missing here. The note in brackets gives the kind of curve behind each potency; many fits are weak.

This experiment is described as follows: qHTS Assay for Lipid Storage Modulators in Drosophila S3 Cells.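 On cell number change: cells counted by Cell Tracker Red CMTPX staining in the red channel.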 Particulars: BODIPY lipid droplet fluorescence, 18-24 h; for cell number change: measured here: cell count max response, cells fed with added oleic acid. An outline of the steps: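 Laser-scanning cytometry quantifies lipid droplet accumulation (500–530 nm total intensity; droplet/cell object ratio) in oleic acid-fed (400 uM added) Drosophila S3 cells treated with a concentration series. 20 uM Triacsin C defined 100% inhibition.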
A general note: Quantitative high-throughput screening tests each substance at several concentrations.

Where [1] appears, read: measured here: cell number channel AC50, cells fed with added oleic acid.
Setting [2] is: measured here: lipid fluorescence (Fed channel) AC50, cells fed with added oleic acid.

In the case of `O=C(NC(=S)Nc1cccc(Cl)c1N1CCCCC1)c1ccco1`, the cell number change was -18.4%. In the case of `COc1ccccc1OCc1nnc(SCC(=O)Nc2nnc(C3CC3)s2)n1C`, the cell number change was 202%. Also, the AC50 (in general, the concentration giving half of the maximal activity seen) under setting [1] is 23100 nM [rising, partial curve]. In addition, the AC50 under setting [2] is 1030 nM [rising, full curve].

Regarding `Cc1ccc(-c2cc(C(=O)NCCCN3CCOCC3)c3ccc(Cl)c(C)c3n2)cc1`, the cell number change is -4.58%. For the same compound, the AC50 under setting [1] is 1300 nM [rising, full curve].

For `O=c1nc(/C=C/c2ccc(-c3ccc(F)cc3)o2)cc(C(F)(F)F)[nH]1`, the AC50 under setting [2] was 1030 nM [falling, full curve]. As to `CC(=O)c1ccc(C(=O)NC2CCCN(Cc3ccccc3F)C2)s1` (stereo not drawn), the cell number change worked out at 0.587%. Besides, the AC50 under setting [1] is 2310 nM [rising, single point]. Take `C[C@@H](C(=O)OCC(=O)NCCc1ccc(S(N)(=O)=O)cc1)N1C(=O)C2CCCCC2C1=O` (stereo partly drawn): the cell number change is -46.5%. The half-maximal activity concentration (AC50) under setting [1] is 651 nM [falling, full curve]. The AC50 under setting [2] is 820 nM [falling, full curve].

For `Cc1ccc(-c2cc(C(=O)N/N=C/c3c[nH]c4ccccc34)[nH]n2)cc1`, the cell number change was 3.15%. Further, the AC50 under setting [2] is 291 nM [rising, partial curve, poor fit]. Regarding `COc1ccccc1N1CCN(C(=O)CN(Cc2ccccc2)S(C)(=O)=O)CC1`, the cell number change is -27%. Besides, the AC50 under setting [2] was 2060 nM [rising, single point].

As to `COC(=O)c1cc(-c2cccs2)nn1-c1ccccc1`, the cell number change amounted to 45.5%. For the same compound, the half-maximal activity concentration (AC50) under setting [1] is 29100 nM [rising, single point]. Also, the half-maximal activity concentration (AC50) under setting [2] is 20600 nM [rising, single point]. In the case of `CC(=O)N/C(=C\c1ccccc1)C(=O)OCC(=O)NC1CCS(=O)(=O)C1` (stereo not drawn), the cell number change was -29.1%. The AC50 under setting [1] is 130 nM [falling, full curve, poor fit]. Besides, under setting [2], the concentration at half-maximal activity (AC50) was 20600 nM [falling, single point].

For the compound `O=C(Nc1ccc(NC(=O)C2CC2)cn1)c1ccccc1`, the cell number change is -1.28%. For the compound `CC1Sc2ccc(C(=O)NCc3cccc(C(F)(F)F)c3)cc2NC1=O` (stereo not drawn), the cell number change is -47.4%. Under setting [1], the AC50 was 16400 nM [falling, single point].

As to `O=C(NC(=O)c1cccc(F)c1)Nc1nc(-c2ccc(F)cc2)cc(C(F)(F)F)n1`, the cell number change was 40.4%. Besides, under setting [1], the AC50 is 2590 nM [rising, full curve, poor fit]. Under setting [2], the half-maximal activity concentration (AC50) was 4610 nM [rising, full curve, poor fit]. With `COc1ccc(CNC(=O)C2CCN(S(=O)(=O)N3CCCCC3)CC2)c(OC)c1`, the cell number change is -11.9%.

As for `Cc1ccc(-c2nnc(-c3cccc(Br)c3)o2)cc1`, the cell number change is -28.8%. The AC50 under setting [2] was 6510 nM [rising, single point]. `CCCCc1cc(=O)oc2c3c(cc(OCC(=O)N4CCC[C@H]4C(=O)O)c12)OC(C)(C)CC3`: the cell number change was 18.4%. Consider `COc1ccccc1-c1nc2cc3ccccc3cc2nc1-c1ccccc1`, for which the cell number change worked out at 19.1%. In addition, the AC50 under setting [2] is 1460 nM [rising, partial curve]. `CC1(C)CC(=O)C=C(NCCN2CCN(C(=O)Nc3ccccc3)CC2)C1`: the cell number change was -43%. For the same compound, the half-maximal activity concentration (AC50) under setting [1] was 731 nM [falling, full curve]. Under setting [2], the AC50 is 3660 nM [falling, full curve]. As to `COc1cc(OC)c(CN2CCCCCCC2)cc1Br`, the concentration at half-maximal activity (AC50) under setting [2] was 29100 nM [falling, partial curve]. Regarding `O=S(=O)(Cc1ccccc1)N1CCCC(c2nc(-c3ccc(F)cc3)no2)C1` (stereo not drawn), the cell number change was -29.7%. The half-maximal activity concentration (AC50) under setting [2] is 29100 nM [rising, single point]. `Cc1ccc2c(c1)nnn2C1CCN(CC(=O)NNC(=O)c2ccco2)CC1`: the cell number change was 20%. Also, the AC50 under setting [2] was 32600 nM [rising, single point]. As for `CNC(=S)NNC(=O)c1sc2cc(C(F)(F)F)cnc2c1-c1cccnc1`, the cell number change is 24.8%. For `CC(C)(C)SC(C(=O)N1CCOCC1)c1ccc(Br)cc1` (stereo not drawn), the cell number change is 10.4%. Under setting [2], the AC50 was 6510 nM [rising, single point]. Take `CCCNS(=O)(=O)c1ccc(OCC(=O)N2CCN(c3ccccc3)CC2)cc1`: the cell number change is -0.241%. On to `N#Cc1cnn2ccc(-c3ccc4c(c3)CCC4)nc12`, for which the cell number change was -15.6%. Under setting [1], the AC50 was 820 nM [falling, full curve, poor fit]. Moreover, the AC50 under setting [2] was 3260 nM [falling, partial curve, poor fit]. Regarding `COc1cccc(/C=C/C(=C2/C(=O)N(c3ccccc3)N=C2C)c2ccc(C)cc2)c1OC`, the cell number change is -29.5%. Also, under setting [2], the AC50 was 32.6 nM [rising, partial curve, poor fit]. As for `FC(F)(F)c1ccc(N2CCOCC2)c(NC2=NCCCCC2)c1`, the cell number change was -4.47%. For the compound `Cc1nc(SCC(=O)N(CC(C)C)C2CCS(=O)(=O)C2)c2c(C)c(C)sc2n1` (stereo not drawn), the cell number change was found to be 3.73%. Further, the AC50 under setting [2] was 2310 nM [rising, partial curve, poor fit]. For `N#CC1=C(N)Oc2cc(O)c(Cl)cc2C1c1ccccc1F` (stereo not drawn), the cell number change was determined as 14.5%. Under setting [2], the AC50 was 29100 nM [rising, single point].

On to `CCOc1ccc(CCNC(=O)CN2CCN(Cc3ccccc3C)C2=O)cc1OCC`, for which the cell number change is -42.1%. The AC50 under setting [1] is 13000 nM [falling, partial curve]. Under setting [2], the half-maximal activity concentration (AC50) is 820 nM [falling, full curve, poor fit]. With `O=C(Nc1ccccc1Br)c1cc(=O)c2ccccc2o1`, the cell number change is 12.5%. Consider `Cc1nc(-c2ccc(NC(=O)C(C)(C)C)cc2)c(-c2ccccc2)o1`, for which the cell number change is -7.64%. For the same compound, the AC50 under setting [1] is 2310 nM [falling, partial curve, poor fit]. For the same compound, the AC50 under setting [2] is 1300 nM [falling, partial curve]. Take `Cc1ccc(C(=O)NCC(=O)N2CCC(Cc3ccccc3)CC2)cc1`: the cell number change is -8.74%. The AC50 under setting [2] was 5.17 nM [falling, full curve, poor fit]. Regarding `COc1cccc(OC)c1C(=O)Nn1c(C2CCC2)nc2ccccc2c1=O`, the cell number change was -15.7%. Moreover, the AC50 under setting [2] is 29100 nM [falling, partial curve, poor fit]. With `O=C(/C=C/c1ccccc1)NC(NC(=S)Nc1cc(Cl)ccc1Cl)C(Cl)(Cl)Cl` (stereo not drawn), under setting [2], the AC50 is 18400 nM [falling, partial curve]. For the compound `Cc1ccc(C(=O)N2CCN(c3ccc([N+](=O)[O-])cc3-n3cccc3)CC2)cc1`, the cell number change was determined as 23.6%. Besides, the AC50 under setting [2] was 517 nM [rising, full curve].

On to `CCCN(CCC)C(=O)CSc1nc2n[nH]c(C)c2c(=N)n1-c1ccc(OCC)cc1`, for which the AC50 under setting [2] was 580 nM [falling, single point]. For the compound `O=c1oc(-c2cccc(Cl)c2)nc2c1cnn2-c1ccccc1`, the cell number change was -24.2%. With `NC(=O)C1CCN(CC(=O)Nc2nccs2)CC1`, the cell number change was 7.92%. For the same compound, the AC50 under setting [2] was 29100 nM [rising, single point]. Consider `c1ccc2c(C3=NNC(=NC4CC4)SC3)c[nH]c2c1`, for which the cell number change is -7.76%. Also, the AC50 under setting [2] was 6510 nM [rising, single point].

With `O=C(NCc1cccnc1)Nc1ccccc1C(F)(F)F`, the cell number change stood at 12.4%. Regarding `COc1ccccc1N1CCN(CC(=O)Nc2cc(F)ccc2C)CC1`, the cell number change worked out at 48.2%. Under setting [1], the half-maximal activity concentration (AC50) was 18400 nM [rising, single point].

`O=C(Nc1cccc2c1CCCC2)C1CCN(c2nnnn2-c2ccccc2)CC1`: the AC50 under setting [2] was 1840 nM [rising, partial curve].

On to `Cc1cccc(NC(=O)CN2CCN(C(=O)c3cncn3-c3ccc(F)cc3)CC2)c1C`, for which the cell number change was -19.2%. The AC50 under setting [2] was 5170 nM [falling, full curve, poor fit].

For the compound `CCCCNc1c(-c2cccc(-c3cc(C(C)=O)cs3)c2)nc2cc(C)ccn12`, the cell number change was -13.8%. The AC50 under setting [2] was 32600 nM [falling, single point].

Consider `COC(=O)c1ccc(CNC(=O)COC(=O)CCN2C(=O)C3CC=CCC3C2=O)cc1` (stereo not drawn), for which the cell number change is -10.4%. Further, under setting [2], the AC50 is 580 nM [falling, full curve, poor fit]. `COc1ccc(NC(=O)c2[nH]c(C)c(C(C)=O)c2C)cc1Cl`: the cell number change is -19.8%. Besides, under setting [2], the AC50 is 651 nM [rising, single point]. In the case of `Cc1cc(NC(=O)c2ccccc2F)cc(C)c1OCC(=O)N1CCOCC1`, the cell number change is -19.6%.

For `CC1CCN(c2ccc3nnc(CCC(=O)N4CCN(c5ccc(F)cc5)CC4)n3n2)CC1`, the AC50 under setting [1] was 130 nM [rising, full curve, poor fit].

Consider `CC(C)CCNC(=S)Nc1ccc(Br)cc1`, for which the cell number change is -20.4%. In addition, the AC50 under setting [2] was 29100 nM [falling, single point]. `COc1ccccc1-c1oc2ccccc2c1C#CCCCCO`: the cell number change was -26.5%. Also, the AC50 under setting [1] is 820 nM [falling, full curve, poor fit]. For the same compound, the AC50 under setting [2] was 651 nM [falling, full curve]. With `O=S1(=O)N=C(N2CCN(c3ccc(F)cc3)CC2)c2ccccc21`, the cell number change turned out to be 18.7%.

For `Cc1ccc(-n2nnnc2CSc2nnc(-c3ccc(O)cc3)o2)cc1`, the cell number change came to 4.15%. The AC50 under setting [2] was 6510 nM [falling, single point]. Turning to `C=CCn1c(COc2ccccc2)nnc1SCC(=O)N/N=C/c1cc(Cl)ccc1O`, the cell number change came to 7.52%. For the same compound, the AC50 under setting [1] is 651 nM [falling, single point]. Take `O=C(COC(=O)CNC(=O)c1cccc([N+](=O)[O-])c1)Nc1cccc(S(=O)(=O)N2CCCCC2)c1`: the cell number change stood at 7.03%. Moreover, the AC50 under setting [2] is 4110 nM [rising, full curve, poor fit]. Consider `Nc1c(-c2ccccc2)cnn1-c1ccc(C(=O)O)cc1`, for which the cell number change came out at 13.6%. Further, under setting [2], the AC50 was 103 nM [rising, full curve]. Regarding `c1ccc(Cn2c(-c3ccccc3)nc3nc4ccccc4nc32)cc1`, the cell number change is -29.4%. Under setting [2], the AC50 is 3660 nM [rising, partial curve, poor fit]. Regarding `O=C1CCC(/C=C/c2ccccc2)=NN1Cc1ccccc1Cl`, the cell number change came out at 18%. Turning to `CCOCCCNC(=O)c1ccccc1NC(=O)C1=C(C)OCCS1`, the cell number change stood at 46.5%. Under setting [1], the AC50 was 29100 nM [rising, single point]. On to `CC(C)S(=O)(=O)c1cnc(-c2ccccn2)nc1N`, for which the cell number change is -5.13%. Take `Cn1nc(C(=O)Nc2c(-c3ccccc3)nc3sccn23)c2ccccc2c1=O`: the cell number change came to 3.48%. Besides, under setting [1], the concentration at half-maximal activity (AC50) is 6510 nM [falling, single point]. Also, under setting [2], the AC50 is 6510 nM [falling, single point].
